Experimental data: the supplement of paper PMC8612539
Values after ≈ are worked out from the molar mass of the structure shown. Further values from the same series stand in other lists.

Test system: Escherichia coli
Test: minimum inhibitory concentration (MIC)
Description: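 Broth microdilution MIC (Sensititre BOPO7F bovine plate, CLSI methods) of 19 antimicrobials against field isolates of P. multocida, M. haemolytica, H. somni (deep nasopharyngeal swabs) and E. coli, Enterococcus spp. (rectal swabs) from weaned dairy heifers. Incubation 16-24 h at 35 C. MIC is the lowest concentration preventing visible growth. Values with <= or > lie at the tested range limits. Trimethoprim-sulfamethoxazole is given as the trimethoprim component of a 1:19 mixture.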

CCCNC[C@]1(O)[C@H](C)O[C@@H](O[C@H]2[C@H](C)[C@@H](O[C@@H]3O[C@H](C)C[C@H](N(C)C)[C@H]3O)[C@](C)(O)C[C@@H](C)CN[C@H](C)[C@@H](O)[C@](C)(O)[C@@H](CC)OC(=O)[C@@H]2C)C[C@@]1(C)OC [Tulathromycin]
Conditions	minimum inhibitory concentration [µg/mL]
isolate (source animal id): 1	≤ 8
isolate (source animal id): 2	≤ 8
isolate (source animal id): 3	≤ 8
isolate (source animal id): 4	≤ 8
isolate (source animal id): 5	≤ 8
isolate (source animal id): 6	≤ 8
isolate (source animal id): 7	≤ 8
isolate (source animal id): 17	≤ 8
isolate (source animal id): 18	≤ 8
isolate (source animal id): 19	≤ 8
isolate (source animal id): 20	≤ 8
isolate (source animal id): 21	16 (≈ 19.8 µM)
isolate (source animal id): 22	≤ 8
isolate (source animal id): 23	16 (≈ 19.8 µM)
isolate (source animal id): 24	16 (≈ 19.8 µM)
isolate (source animal id): 25	≤ 8
isolate (source animal id): 26	≤ 8
isolate (source animal id): 27	≤ 8
isolate (source animal id): 28	≤ 8
isolate (source animal id): 29	≤ 8
isolate (source animal id): 30	≤ 8
isolate (source animal id): 31	≤ 8
isolate (source animal id): 32	≤ 8
isolate (source animal id): 33	≤ 8
isolate (source animal id): 34	≤ 8
isolate (source animal id): 35	≤ 8
isolate (source animal id): 36	≤ 8
isolate (source animal id): 37	≤ 8
isolate (source animal id): 38	16 (≈ 19.8 µM)
isolate (source animal id): 39	≤ 8
isolate (source animal id): 40	≤ 8
isolate (source animal id): 41	≤ 8
isolate (source animal id): 42	≤ 8
isolate (source animal id): 43	≤ 8
isolate (source animal id): 44	≤ 8
isolate (source animal id): 45	≤ 8
isolate (source animal id): 46	≤ 8
isolate (source animal id): 47	≤ 8
isolate (source animal id): 48	≤ 8
isolate (source animal id): 49	≤ 8
isolate (source animal id): 50	≤ 8
isolate (source animal id): 51	≤ 8
isolate (source animal id): 52	≤ 8
isolate (source animal id): 53	≤ 8
isolate (source animal id): 54	≤ 8
isolate (source animal id): 55	≤ 8
isolate (source animal id): 56	16 (≈ 19.8 µM)
isolate (source animal id): 57	≤ 8
isolate (source animal id): 58	16 (≈ 19.8 µM)
isolate (source animal id): 59	≤ 8
isolate (source animal id): 60	≤ 8
isolate (source animal id): 61	≤ 8
isolate (source animal id): 62	16 (≈ 19.8 µM)
isolate (source animal id): 63	16 (≈ 19.8 µM)
isolate (source animal id): 64	16 (≈ 19.8 µM)
isolate (source animal id): 65	16 (≈ 19.8 µM)
isolate (source animal id): 66	16 (≈ 19.8 µM)
isolate (source animal id): 67	≤ 8
isolate (source animal id): 68	≤ 8
isolate (source animal id): 69	16 (≈ 19.8 µM)
isolate (source animal id): 70	16 (≈ 19.8 µM)
isolate (source animal id): 71	16 (≈ 19.8 µM)
isolate (source animal id): 72	≤ 8
isolate (source animal id): 73	16 (≈ 19.8 µM)
isolate (source animal id): 74	≤ 8
isolate (source animal id): 75	≤ 8
isolate (source animal id): 76	≤ 8
isolate (source animal id): 77	≤ 8
isolate (source animal id): 78	≤ 8
isolate (source animal id): 79	≤ 8
isolate (source animal id): 80	≤ 8
isolate (source animal id): 81	≤ 8
isolate (source animal id): 82	≤ 8
isolate (source animal id): 83	≤ 8
isolate (source animal id): 84	≤ 8
isolate (source animal id): 85	≤ 8
isolate (source animal id): 86	16 (≈ 19.8 µM)
isolate (source animal id): 87	≤ 8
isolate (source animal id): 88	≤ 8
isolate (source animal id): 89	≤ 8
isolate (source animal id): 90	16 (≈ 19.8 µM)
isolate (source animal id): 91	≤ 8
isolate (source animal id): 92	≤ 8
isolate (source animal id): 93	≤ 8
isolate (source animal id): 94	16 (≈ 19.8 µM)
isolate (source animal id): 95	≤ 8
isolate (source animal id): 96	≤ 8
isolate (source animal id): 97	≤ 8
isolate (source animal id): 189	≤ 8
isolate (source animal id): 190	≤ 8
isolate (source animal id): 191	≤ 8
isolate (source animal id): 192	≤ 8
isolate (source animal id): 193	≤ 8
isolate (source animal id): 194	≤ 8
isolate (source animal id): 195	≤ 8
isolate (source animal id): 196	≤ 8
isolate (source animal id): 197	16 (≈ 19.8 µM)
isolate (source animal id): 198	≤ 8
isolate (source animal id): 199	≤ 8
isolate (source animal id): 200	≤ 8
isolate (source animal id): 201	≤ 8
isolate (source animal id): 202	≤ 8
isolate (source animal id): 203	16 (≈ 19.8 µM)
isolate (source animal id): 204	≤ 8
isolate (source animal id): 205	16 (≈ 19.8 µM)
isolate (source animal id): 206	≤ 8
isolate (source animal id): 207	≤ 8
isolate (source animal id): 208	≤ 8
isolate (source animal id): 209	16 (≈ 19.8 µM)
isolate (source animal id): 210	≤ 8
isolate (source animal id): 211	≤ 8
isolate (source animal id): 212	≤ 8
isolate (source animal id): 213	16 (≈ 19.8 µM)
isolate (source animal id): 214	≤ 8
isolate (source animal id): 215	≤ 8
isolate (source animal id): 216	≤ 8
isolate (source animal id): 217	≤ 8
isolate (source animal id): 218	≤ 8
isolate (source animal id): 219	≤ 8
isolate (source animal id): 220	≤ 8
